# ± gives the standard deviation of the averaged measurements. This is one part of the list.
# Tested on: Madurella mycetomatis MM55
# Test: metabolic activity (growth) relative to DMSO growth control; higher = more fungal growth
# Conditions: 1 µM
row,SMILES,metabolic activity [%]
1,COc1ccc(-c2cc3c(C)nc(N)nc3n([C@H]3CC[C@H](O)CC3)c2=O)cn1,91.5 ± 23
2,CCCc1cc(N2CCCN(C)CC2)nc2sc3c(N)ncnc3c12,87.6 ± 15
3,O=C(NCCO)c1cccc(-c2cc(Nc3ccc(OC(F)(F)F)cc3)ncn2)c1,107 ± 37
4,CCS(=O)(=O)c1ccc(OC)c(Nc2ncc(-c3cccc(OC)c3)o2)c1,113 ± 4.2
5,O=C(O)C(F)(F)F.O=C(O)C(F)(F)F.O=c1c2cnc(Nc3ccc(N4CCN(CC5CCCCC5)CC4)cc3)nc2n2ccnc2n1-c1ccccc1Cl,94.8 ± 7.8
6,CCC(=O)Nc1cc(Nc2cc(NC3CC3)n3ncc(C#N)c3n2)ccc1C,85.5 ± 4.9
7,COc1ccccc1-c1cc(/C=C2\C(=O)Nc3ncc(Br)cc32)cc(Br)c1O,82.8 ± 1.4
8,Cc1cccc(CC(=O)N2CCc3c2ccc(-c2cn(C)c4ncnc(N)c24)c3F)n1,88.6 ± 3.5
9,CCOc1nc(C(=O)NCc2ccccc2S(N)(=O)=O)cc(N)c1C#N,106 ± 3.9
10,COc1cccc(-n2ncc3c(N/N=C/c4ccncc4)ncnc32)c1,81.9 ± 9.8
11,O=C(c1ccc(-c2cc(-c3c[nH]nc3-c3ccccn3)ccn2)cc1)N1CCCC1,103 ± 0.78
12,O=C(Nc1cnccn1)Nc1ccnc2c(F)cccc12,116 ± 19
13,CCCS(=O)(=O)Nc1ccc(F)c(-n2cc(-c3cncc(OC)c3)nn2)c1F,92.3 ± 42
14,O=C(O)CSc1ncnc2cc(-c3ccc(F)cc3)sc12,108.3 ± 0.45
15,CCn1cc(-c2ccnc3[nH]c(-c4cccc(CN(C)C)c4)cc23)c(-c2ccc(NC(=O)N(C)C)cc2)n1,118 ± 16
16,Fc1ccccc1-c1cc(NCc2cccnc2)n2ncc(Br)c2n1,94.8 ± 12
17,CN1C(=O)c2ccccc2N(C)c2nc(Nc3cnn(C4CCNCC4)c3)ncc21,113 ± 14
18,CC(C)C(=O)N[C@@H]1CCN(C(=O)Nc2nc3c(s2)-c2nc(-c4ccccc4Cl)ncc2CC3)C1,90.5 ± 23

row,SMILES,metabolic activity [%]
1,Nc1ncnn2c(CN3CCOCC3)cc(-c3cc(F)c(CO)c(F)c3)c12,84.5 ± 14
2,COc1cc(C2CCNCC2)ccc1Nc1nc(Cc2ccccc2F)n2cnnc2c1C(N)=O.Cl,94.6 ± 22
3,Cl.c1ccc(Cc2nc3ccc(Nc4ncnc5ccccc45)cc3[nH]2)cc1,80 ± 3
4,O=C(Nc1cccnc1)c1cc(-c2ccnc(F)c2)ccc1OCc1ccccc1,111 ± 22
5,O=c1[nH]c2cc(Nc3ccc(F)cc3F)ccc2n1CC1CCCCC1,92 ± 34
6,Cc1ccc(NC(=O)c2cccc(C3(C#N)CCOCC3)c2)cc1C(=O)Nc1ccc2ncsc2c1,95.2 ± 40
7,CC(C)(C)S(=O)(=O)c1ccc2nccc(Nc3n[nH]c4ccc(F)cc34)c2c1,96.8 ± 6.2
8,Cl.O=C(Nc1ccc(Oc2ccc3[nH]c(NC(=O)c4ccccc4)nc3c2)cc1)Nc1cc(C(F)(F)F)ccc1F,92.8 ± 5.7
9,CN1CCN(C(=O)c2cccc(NC(=O)Nc3ccc(N(C)c4ccnc(Nc5ccc(CS(C)(=O)=O)cc5)n4)cc3)c2)CC1.Cl,102 ± 34
10,O=C(Nc1n[nH]c2nc(-c3ccc(O)cc3)c(Br)cc12)C1CC1,94.5 ± 21
11,NS(=O)(=O)c1ccc(N/N=C2\C(=O)Nc3ccc(-c4cnco4)cc32)cc1,122 ± 6.1
12,CCCS(=O)(=O)Nc1ccc(F)c(C(=O)c2c[nH]c3ncc(Cl)cc23)c1F,109 ± 18
13,Cc1cccc(CC(=O)Nc2ccc(-c3csc4ccnc(N)c34)cc2)c1,99.63 ± 0.59
14,CCCNC(=O)c1ccc(Nc2nc(NCC(F)(F)F)c3occc3n2)cc1,103 ± 17
15,COc1cc(/C=N/Nc2ncnc3[nH]ncc23)ccc1O,131 ± 62
16,CC(=O)O.Nc1ncc2ccn(-c3ccc4[nH]ncc4c3)c2n1,124 ± 34
17,CN(C)C(=O)/C(C#N)=C/c1ccc(-c2nc3cnc4[nH]ccc4c3n2C2CCCCC2)o1,93.7 ± 3.4
18,Cc1c(Cn2ccn3c(=O)nc(N4CCOCC4)cc23)cccc1C(F)(F)F,81.6 ± 3.2

# Same assay, conditions: 2 µM
row,SMILES,metabolic activity [%]
1,COc1ccc(-c2cc3c(C)nc(N)nc3n([C@H]3CC[C@H](O)CC3)c2=O)cn1,80.8 ± 3.2
2,CCCc1cc(N2CCCN(C)CC2)nc2sc3c(N)ncnc3c12,79.3 ± 6.3
3,O=C(NCCO)c1cccc(-c2cc(Nc3ccc(OC(F)(F)F)cc3)ncn2)c1,113 ± 11
4,CCS(=O)(=O)c1ccc(OC)c(Nc2ncc(-c3cccc(OC)c3)o2)c1,72.9 ± 4.2
5,O=C(O)C(F)(F)F.O=C(O)C(F)(F)F.O=c1c2cnc(Nc3ccc(N4CCN(CC5CCCCC5)CC4)cc3)nc2n2ccnc2n1-c1ccccc1Cl,80.7 ± 25
6,CCC(=O)Nc1cc(Nc2cc(NC3CC3)n3ncc(C#N)c3n2)ccc1C,87.9 ± 28
7,COc1ccccc1-c1cc(/C=C2\C(=O)Nc3ncc(Br)cc32)cc(Br)c1O,80.7 ± 28
8,Cc1cccc(CC(=O)N2CCc3c2ccc(-c2cn(C)c4ncnc(N)c24)c3F)n1,81.8 ± 29
9,CCOc1nc(C(=O)NCc2ccccc2S(N)(=O)=O)cc(N)c1C#N,71.98 ± 0.41
10,COc1cccc(-n2ncc3c(N/N=C/c4ccncc4)ncnc32)c1,65.4 ± 16
11,O=C(c1ccc(-c2cc(-c3c[nH]nc3-c3ccccn3)ccn2)cc1)N1CCCC1,97 ± 13
12,O=C(Nc1cnccn1)Nc1ccnc2c(F)cccc12,131.6 ± 0.73
13,CCCS(=O)(=O)Nc1ccc(F)c(-n2cc(-c3cncc(OC)c3)nn2)c1F,78.6 ± 14
14,O=C(O)CSc1ncnc2cc(-c3ccc(F)cc3)sc12,84.2 ± 29
15,CCn1cc(-c2ccnc3[nH]c(-c4cccc(CN(C)C)c4)cc23)c(-c2ccc(NC(=O)N(C)C)cc2)n1,102 ± 32
16,Fc1ccccc1-c1cc(NCc2cccnc2)n2ncc(Br)c2n1,91.5 ± 9.5
17,CN1C(=O)c2ccccc2N(C)c2nc(Nc3cnn(C4CCNCC4)c3)ncc21,124 ± 9.6
18,CC(C)C(=O)N[C@@H]1CCN(C(=O)Nc2nc3c(s2)-c2nc(-c4ccccc4Cl)ncc2CC3)C1,102 ± 4.5

row,SMILES,metabolic activity [%]
1,Nc1ncnn2c(CN3CCOCC3)cc(-c3cc(F)c(CO)c(F)c3)c12,92.7 ± 25
2,COc1cc(C2CCNCC2)ccc1Nc1nc(Cc2ccccc2F)n2cnnc2c1C(N)=O.Cl,124 ± 26
3,Cl.c1ccc(Cc2nc3ccc(Nc4ncnc5ccccc45)cc3[nH]2)cc1,82.3 ± 8.9
4,O=C(Nc1cccnc1)c1cc(-c2ccnc(F)c2)ccc1OCc1ccccc1,109 ± 14
5,O=c1[nH]c2cc(Nc3ccc(F)cc3F)ccc2n1CC1CCCCC1,74.4 ± 24
6,Cc1ccc(NC(=O)c2cccc(C3(C#N)CCOCC3)c2)cc1C(=O)Nc1ccc2ncsc2c1,90.1 ± 12
7,CC(C)(C)S(=O)(=O)c1ccc2nccc(Nc3n[nH]c4ccc(F)cc34)c2c1,100 ± 25
8,Cl.O=C(Nc1ccc(Oc2ccc3[nH]c(NC(=O)c4ccccc4)nc3c2)cc1)Nc1cc(C(F)(F)F)ccc1F,100 ± 19
9,CN1CCN(C(=O)c2cccc(NC(=O)Nc3ccc(N(C)c4ccnc(Nc5ccc(CS(C)(=O)=O)cc5)n4)cc3)c2)CC1.Cl,108 ± 4
10,O=C(Nc1n[nH]c2nc(-c3ccc(O)cc3)c(Br)cc12)C1CC1,116 ± 26
11,NS(=O)(=O)c1ccc(N/N=C2\C(=O)Nc3ccc(-c4cnco4)cc32)cc1,124 ± 35
12,CCCS(=O)(=O)Nc1ccc(F)c(C(=O)c2c[nH]c3ncc(Cl)cc23)c1F,103 ± 26
13,Cc1cccc(CC(=O)Nc2ccc(-c3csc4ccnc(N)c34)cc2)c1,113 ± 43
14,CCCNC(=O)c1ccc(Nc2nc(NCC(F)(F)F)c3occc3n2)cc1,97.5 ± 22
15,COc1cc(/C=N/Nc2ncnc3[nH]ncc23)ccc1O,122 ± 41
16,CC(=O)O.Nc1ncc2ccn(-c3ccc4[nH]ncc4c3)c2n1,114 ± 37
17,CN(C)C(=O)/C(C#N)=C/c1ccc(-c2nc3cnc4[nH]ccc4c3n2C2CCCCC2)o1,118 ± 5.3
18,Cc1c(Cn2ccn3c(=O)nc(N4CCOCC4)cc23)cccc1C(F)(F)F,99.7 ± 34
